Core epitope data for three molecules are collected here from patent US10406197B2, “Substances and methods for the use in prevention and/or treatment in Huntington's disease” (AFFIRIS AG, priority 2014, dated 2019).

The labels stand for the following.
B1: PRR13: monoclonal antibody, mouse IgG2a, generated by hybridoma technique using peptide p6773 as immunogen; VH/VL SEQ ID No. 62/63 (antibody)
VH: MGWSWVMLFLLSGTGGVLSEVQLQQSAPELVKPGASVKMSCKASGYSFTDFYMKWVKQSHGKGLEWIGDIDPKNGDTFYNQKFKGRATLTVDKSSSTAYMQLNSLTTEDSAVYYCATYYGYTMDYWGQGTSVTVSSAKTTAPSVYPLAPVCGDTTGSSVTLGCLVKGYF
light: MDFQVQIFSFLLISASVIMSRGQIVLTQSPAIMSASLGERVTMTCTASSSVTSSYLHWYQQKPGSSPKLWIYSTSNLASGVPARFSGSGSGTSYSLTISSMEAEDAATYYCHQYRRPPRTFGGGTKLEIKRADAAPTVSIFPPSSEQLTSGGASVVCFLNNFYPR
modifications: antibody sequence
B2: C6-17: monoclonal antibody, mouse IgG2a, generated by hybridoma technique using peptide p7543 as immunogen; VH/VL SEQ ID No. 60/61 (antibody)
VH: MGWSCIMLFLLSGTAGVLSEVQLQQSGPELVKPGASVKISCKTSGYTFTEYTMHWVKQSHGKSLEWIGGINPNNGGTRYNQKFKGKATLTVDRSSSTAYMELRSLTSEDSAVYYCASLDGRDYWGQGTTLTVSSAKTTAPSVFPLA
light: MVLMLLLLWVSGTCGDIVMSQSPSSLAVSAGEKVTMSCKSSQSLLNSRTRKNYLAWYQQKPGQSPKLLIYWASTRESGVPDRFTGSGSGTDFTLTISSVQAEDLAVYSCKQSYNLLTFGAGTKLELKRADAAPTVSIFPPSSEQLTSGGASVVCFLNNFYPK
modifications: antibody sequence
B3: M1D1: monoclonal antibody, mouse IgM, generated using peptide p7564 as immunogen; VH/VL SEQ ID No. 64/65 (antibody)
VH: MDFGLSWVFFVVFYQGVHCEVQLVESGGGLVQPKGSLKLSCAASGFTFNTYAMNWVRQAPGKGLEWVARIRSKSNNYATYYADSVKDRFTISRDDSQSMLYLQMNNLKTEDTAMYYCVRHGEYGNPWFAYWGQGTLVTVSAESQSFPNVFPL
light: MKLPVRLLVLMFWIPASSSDVVMTQTPLSLPVSLGDQASISCRSSQSLVHSNGNTYLHWYLQKPGQSPKLLIYKVSNRFSGVPDRFSGSGSGTDFTLKISRVEAEDLGVYFCSQSTHVPYTFGGGTKLEIKRADAAPTVSIFPPSSEQLTSGGASVVCFLNNFYPK
modifications: antibody sequence

In the data set the test system is Huntingtin-derived immunization peptides. The experiment in a line: Core epitope mapping by alanine / single amino acid substitution scanning. Format: binding, human. The note with it: signal of substituted peptide reduced to less than 70% defines core epitope position.
On to B1, for which the core epitope entry was “..........LLPQP.....epitope mapped for mAB PRR13”. Next, B2: “QYLGLQIG”. In the case of B3, the core epitope entry is listed as “SSEIVLD”.
